# Source: PubChem BioAssay AID743255 (National Center for Advancing Translational Sciences (NCATS), 2014)
# The chains behind the UniProt entries cited, without tags or fusion partners. Where a name states a change or a piece, a line headed by the entry shows the natural chain unless it says otherwise.
# UniProt O94782: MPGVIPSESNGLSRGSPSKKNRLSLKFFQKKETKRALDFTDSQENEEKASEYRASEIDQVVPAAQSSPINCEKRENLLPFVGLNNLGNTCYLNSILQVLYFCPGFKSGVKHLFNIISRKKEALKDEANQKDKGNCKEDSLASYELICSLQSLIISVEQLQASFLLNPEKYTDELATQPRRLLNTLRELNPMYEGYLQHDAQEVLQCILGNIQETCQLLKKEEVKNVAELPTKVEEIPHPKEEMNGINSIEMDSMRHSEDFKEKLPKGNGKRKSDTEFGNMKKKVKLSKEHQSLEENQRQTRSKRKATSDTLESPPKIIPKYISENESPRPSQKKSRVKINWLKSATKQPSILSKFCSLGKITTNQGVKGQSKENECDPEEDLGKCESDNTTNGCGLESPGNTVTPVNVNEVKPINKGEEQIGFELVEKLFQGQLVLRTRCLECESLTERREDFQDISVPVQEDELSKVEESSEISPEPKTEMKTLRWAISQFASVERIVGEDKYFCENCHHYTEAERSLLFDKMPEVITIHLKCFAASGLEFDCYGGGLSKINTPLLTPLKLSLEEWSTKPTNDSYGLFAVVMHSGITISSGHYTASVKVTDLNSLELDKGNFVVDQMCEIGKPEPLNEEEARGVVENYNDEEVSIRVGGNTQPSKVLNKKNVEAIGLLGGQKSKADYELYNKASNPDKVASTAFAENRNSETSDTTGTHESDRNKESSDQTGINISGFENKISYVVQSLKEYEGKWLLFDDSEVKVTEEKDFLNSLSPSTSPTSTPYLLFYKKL
# The whole screen tested about 390,000 compounds, of which about 910 (0.23%) were called active. Inconclusive results, whose numbers are uncertain, are shown with a selection of clear calls. Calls come from the whole dose curve; as a rule, active = well fitted inhibition curve with a large enough effect; inconclusive = small, poorly fitted or top-dose-only effect; inactive = no such curve, though single readings can be large or run the other way. Where the call is inconclusive, the potency comes from a doubtful curve fit.
# Target: Ubiquitin carboxyl-terminal hydrolase 1 (Homo sapiens) (UniProt O94782)
# Assay: Inhibitors of USP1/UAF1: Primary Screen; note: nearly all actives have a fitted effect of over 60% in size
# Details: recombinant USP1/UAF1, Ub-Rhodamine cleavage fluorescence; activity change, negative = inhibition: at 57.1 µM (top of the series)
# In short: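 1 nM enzyme complex + cpd, 15 min RT; start with Ub-Rho 150nM final; kinetic fluorescence ex 480/em 540, 6 reads q60 s. Buffer 50mM HEPES pH 7.8, 0.5mM EDTA, 0.1 mg/ml BSA, 1mM TCEP, 0.01% Tween-20.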
# % is set by controls: 0 for no effect and ±100 for the full control effect; potency is the fitted concentration of half-maximal effect.
SMILES,"activity change, negative = inhibition",Potency
O=C1CCCc2cc(S(=O)(=O)N3CCCC(C(=O)Nc4ccc(F)c(Cl)c4)C3)ccc2N1 (centres undefined),inactive: -21.5%,–
O=C(Nc1ccc(Br)cc1F)C1CCN(c2nc3ccccc3[nH]2)CC1,–,"inconclusive: 2.82 µM [inhibitor, full curve]"
CCN(CC)C(=O)c1[nH]cnc1C(=O)N[C@@H](Cc1ccccc1)C(=O)OCc1ccccc1,–,"inconclusive: 0.282 µM [inhibitor, full curve]"
COc1ccc(C2/C=C\CN(C(=O)c3ccc(C)cc3)[C@H](Cc3ccccc3)C(=O)N2Cc2ccc(F)cc2)cc1 (some centres undefined),–,"inconclusive: 11.2 µM [inhibitor, full curve]"
COc1ccc(C(=O)c2sc3nc(C)cc(-c4cccs4)c3c2N)cc1OC,–,"inconclusive: 35.5 µM [inhibitor, partial curve, poor fit]"
CC1(C)Cc2c(cnn2-c2ccc(F)cc2)C(NC(=O)CCN2CCCCO2)C1 (centres undefined),inactive: 0.428%,–
O=C1N=c2ccccc2=C1c1sc(NS(=O)(=O)Cc2ccccc2)nc1O,inactive: -14.7%,–
COC(=O)c1ccc(N2CCC(c3cc(-c4ccc(OC)cc4)n[nH]3)CC2)c([N+](=O)[O-])c1,inactive: -12%,–
Cc1ccc2oc3c(c(=O)c2c1)C(c1ccccc1F)N(CCCN(C)C)C3=O (centres undefined),inactive: 9.84%,–
Cc1ccc(C(=O)CSc2nnc(N)s2)c(C)c1,inactive: -4.35%,–
Cc1ccc(S(=O)(=O)Nc2cc(C)cn(Cc3ccccc3)c2=O)cc1,–,"inconclusive: 39.8 µM [inhibitor, partial curve]"
CCOC(=O)N1CCN(C(=O)c2c(C)nn(-c3cccc(C)c3)c2-n2cccc2)CC1,–,"inconclusive: 0.178 µM [inhibitor, full curve, poor fit]"
COc1cc2c(c(OC)c1OC)C(c1ccc(O)cc1)CC(=O)O2 (centres undefined),–,"inconclusive: 50.1 µM [inhibitor, partial curve, poor fit]"
CCN(CC)C(=O)c1sc2c(c1C)c(=O)n(-c1ccc(Cl)c(Cl)c1)c(=O)n2Cc1cc(=O)n2ccccc2n1,inactive: -1.04%,–
COc1ccc(OC)c(NC(=O)CSc2ncnc3c2cnn3-c2ccccc2Cl)c1,–,"inconclusive: 39.8 µM [inhibitor, single point]"
O=C(C1CC1)N1CCN(Cc2ccccc2)CC1,–,"inconclusive: 7.08 µM [inhibitor, partial curve, poor fit]"
Nc1c2c(nc3ccn(-c4ccccc4)c(=O)c13)CCCCC2,inactive: -13.9%,–
O=S(=O)(Nc1nc2ccccc2nc1Nc1ccccc1Br)c1ccccc1,inactive: -31.7%,–
CCn1c(=O)cc(SCC(=O)NCc2cccnc2)c2ccccc21,inactive: -10.9%,–
CC1(C)CC(Nc2ccc(Nc3ccccc3)cc2)CC(C)(C)N1,inactive: -13.3%,–
CCCCc1ccc(Nc2nc(N3CCOCC3)nc(N3CCOCC3)n2)cc1,–,"inconclusive: 10 µM [inhibitor, full curve]"
CCn1c(CNC(=O)c2ccco2)nnc1SCC(=O)Nc1cc(F)ccc1C,–,"inconclusive: 8.91 µM [inhibitor, partial curve, poor fit]"

SMILES,"activity change, negative = inhibition",Potency
Cc1ccc(CCNC(=O)C2CCN(S(=O)(=O)N3CCC4(CC3)OCCO4)CC2)cc1,–,"inconclusive: 0.316 µM [inhibitor, partial curve, poor fit]"
Cc1ccc(C(=O)c2ccc([N+](=O)[O-])cc2)cc1,inactive: -5.88%,–
CC(C)Oc1cccc(C(=O)Nc2ccc3oc(-c4cccc(Cl)c4)nc3c2)c1,–,"inconclusive: 35.5 µM [inhibitor, partial curve, poor fit]"
Cc1ccc2nc(-c3ccncc3)cc(C(=O)Nc3ccc(OC(F)F)cc3)c2c1,–,"inconclusive: 25.1 µM [inhibitor, single point]"
O=C1C2C3C=CC(C3)C2C(=O)N1/N=C/c1cn(Cc2ccccc2)c2ccccc12 (centres undefined),inactive: -20.2%,–
O=C(/C=C/c1ccccc1[N+](=O)[O-])N1CCCCC1,inactive: -18.3%,–
Cc1cc(NC(=O)COCc2cc(-c3ccc(F)cc3)on2)ccc1Br,–,"inconclusive: 100 µM [inhibitor, partial curve, poor fit]"
COc1ccc(N2C(=O)c3ccccc3NC2c2ccc(OC)c(COc3ccccn3)c2)cc1 (centres undefined),inactive: -3.62%,–
O=c1c2cnn(-c3ccc(F)cc3)c2ncn1Cc1cccc(Cl)c1,–,"inconclusive: 3.55 µM [inhibitor, partial curve]"
Cc1ccc(S(=O)(=O)N2CCC(C(=O)NCCN3CCOCC3)CC2)cc1,–,"inconclusive: 12.6 µM [inhibitor, partial curve, poor fit]"
CCCNC(=O)COc1ncnc2sccc12,–,"inconclusive: 1.78 µM [inhibitor, full curve]"
CC(=O)NCc1ccc(-c2csc(-c3cccs3)n2)cc1,–,"inconclusive: 3.16 µM [inhibitor, partial curve]"
CC(=O)N1CCCc2cc(S(=O)(=O)NCc3cccc(C)c3)ccc21,inconclusive: -38% [inhibitor],–
Cc1cc(/C=C2\SC(=S)N(C)C2=O)c(C)n1-c1ccccc1O,–,"inconclusive: 35.5 µM [inhibitor, partial curve]"
COc1cccc(C2CC(=O)Nc3c2c(=O)n(C)c(=O)n3C)c1OC (centres undefined),–,"inconclusive: 28.2 µM [inhibitor, partial curve]"
COC(=O)c1ccccc1NC(=O)C(C)Oc1ccccc1 (centres undefined),inactive: -19.4%,–
O=C(COC(=O)c1c2ccccc2cc2ccccc12)Nc1ncc(C(F)(F)F)cc1Cl,–,"inconclusive: 39.8 µM [inhibitor, partial curve, poor fit]"
CC(=NNC(=O)c1ccncc1)c1cccc(Br)c1,–,"inconclusive: 7.08 µM [inhibitor, single point]"
CC(C)Oc1ccc(CNS(=O)(=O)c2ccc3c(c2)C(C)(C)C(=O)N3C)cc1,inactive: -8.08%,–
Cc1ccc(C(=O)c2cn(Cc3cccc(C)c3)c3nc(C)ccc3c2=O)cc1,–,"inconclusive: 89.1 µM [inhibitor, partial curve]"
COc1ccccc1NC(=O)CN1CCCCCC1,–,"inconclusive: 8.91 µM [inhibitor, single point]"
NC(=O)[C@H]1CC2(CC(c3cccc(NC(=O)[C@H]4CCC(=O)N4)c3)=NO2)CN1C(=O)c1cc([N+](=O)[O-])cc([N+](=O)[O-])c1 (some centres undefined),–,"inconclusive: 44.7 µM [inhibitor, partial curve, poor fit]"

# Ordered by molecular weight (falling): 13 of the compounds above
SMILES,"activity change, negative = inhibition",Potency
CCN(CC)C(=O)c1sc2c(c1C)c(=O)n(-c1ccc(Cl)c(Cl)c1)c(=O)n2Cc1cc(=O)n2ccccc2n1,inactive: -1.04%,–
O=C1CCCc2cc(S(=O)(=O)N3CCCC(C(=O)Nc4ccc(F)c(Cl)c4)C3)ccc2N1 (centres undefined),inactive: -21.5%,–
COc1ccc(N2C(=O)c3ccccc3NC2c2ccc(OC)c(COc3ccccn3)c2)cc1 (centres undefined),inactive: -3.62%,–
O=C(COC(=O)c1c2ccccc2cc2ccccc12)Nc1ncc(C(F)(F)F)cc1Cl,–,"inconclusive: 39.8 µM [inhibitor, partial curve, poor fit]"
Cc1ccc(CCNC(=O)C2CCN(S(=O)(=O)N3CCC4(CC3)OCCO4)CC2)cc1,–,"inconclusive: 0.316 µM [inhibitor, partial curve, poor fit]"
CCOC(=O)N1CCN(C(=O)c2c(C)nn(-c3cccc(C)c3)c2-n2cccc2)CC1,–,"inconclusive: 0.178 µM [inhibitor, full curve, poor fit]"
CC1(C)Cc2c(cnn2-c2ccc(F)cc2)C(NC(=O)CCN2CCCCO2)C1 (centres undefined),inactive: 0.428%,–
CCCCc1ccc(Nc2nc(N3CCOCC3)nc(N3CCOCC3)n2)cc1,–,"inconclusive: 10 µM [inhibitor, full curve]"
Cc1ccc(C(=O)c2cn(Cc3cccc(C)c3)c3nc(C)ccc3c2=O)cc1,–,"inconclusive: 89.1 µM [inhibitor, partial curve]"
COc1cc2c(c(OC)c1OC)C(c1ccc(O)cc1)CC(=O)O2 (centres undefined),–,"inconclusive: 50.1 µM [inhibitor, partial curve, poor fit]"
Cc1ccc(C(=O)CSc2nnc(N)s2)c(C)c1,inactive: -4.35%,–
CCCNC(=O)COc1ncnc2sccc12,–,"inconclusive: 1.78 µM [inhibitor, full curve]"
Cc1ccc(C(=O)c2ccc([N+](=O)[O-])cc2)cc1,inactive: -5.88%,–
